Measured values as given in patent US11020360B2, “Methods, compounds, compositions and vehicles for delivering 3-amino-1-propanesulfonic acid” (Bellus Health, Inc., priority 2006, dated 2021).
Where a name gives a salt, the structure may show the parent alone. Some entries share one result that the patent states for a list of compounds.

Key:
[1] = Metabolism in human liver microsomes; type: in vitro ADME; conditions: human liver microsomes 1.0 mg/mL, compound 10 μM, 37° C., NADPH and UDPGA
[2] = Metabolism in mouse liver microsomes; type: in vitro ADME; conditions: mouse liver microsomes 1.0 mg/mL, compound 10 μM, 37° C., NADPH and UDPGA

Row | SMILES | % of compound remaining at 60 minutes [1] | % of compound remaining at 60 minutes [2]
1 | CC(=O)OC(C)OC(=O)NCCCS(=O)(=O)O (centres unmarked) [Compound C19, 4-aza-7-methyl-6,8,-dioxa-5,9,-dioxo-1-decanesulfonic acid Sodium Salt] | over 90% | over 90%
2 | O=C(NCCCS(=O)(=O)O)[C@@H]1CCCN1 [Compound A3] | over 90% | over 90%
3 | CC(C)[C@H](N)C(=O)NCCCS(=O)(=O)O [Compound A2] | over 90% | over 90%
4 | N[C@@H](Cc1ccccc1)C(=O)NCCCS(=O)(=O)O [Compound A1] | over 90% | over 90%
